# Assay results reported in patent publication US7767646B2, “Methods of screening for compounds that modulate TAFIa activity, compounds, and methods of using the compounds” (American Diagnostica, Inc., priority 2002, dated 2010).
# Some entries share one result that the patent states for a list of compounds.
# Molecular target: T1, TAFIa (Homo sapiens, UniProt Q96IY4)
# T1 sequence (Q96IY4 115-423): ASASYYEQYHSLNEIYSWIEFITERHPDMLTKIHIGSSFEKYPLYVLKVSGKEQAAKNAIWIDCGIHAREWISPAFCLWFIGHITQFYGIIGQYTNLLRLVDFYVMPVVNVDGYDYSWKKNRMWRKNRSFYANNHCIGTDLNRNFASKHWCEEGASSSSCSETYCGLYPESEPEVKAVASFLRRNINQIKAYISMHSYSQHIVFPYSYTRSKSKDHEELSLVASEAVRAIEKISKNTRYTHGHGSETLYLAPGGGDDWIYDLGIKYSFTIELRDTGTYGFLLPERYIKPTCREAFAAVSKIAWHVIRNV
# Assay: TAFIa carboxypeptidase activity, ActiFLUOR TAFIa fluorescence-based assay
# Assay type: biochemical
# Parameters: purchased American Diagnostica Inc. (Greenwich, Conn.) 3874TAFIa
# Details: incubation 1 hour at room temperature (FIG. 1)
# Description: Residual TAFIa activity was measured using ActiFLUOR TAFIa.
# Residual TAFIa activity was measured using ActiFLUOR TAFIa. […] About 60% TAFIa activity is lost at 25 mM SA.
# Materials. TAFI was purchased from Hematological Associates (Essex Junction, Vt.) and TAFIa (3874TAFIa) was from American Diagnostica Inc. (Greenwich, Conn.). Carboxypeptidase activity of TAFIa was determined using ACTIFLUOR™ TAFI (#874FX) a fluorescence-based assay from American Diagnostica (Greenwich, Conn.). ASA, SA and SU were obtained from Sigma Chemical Co. (St. Louis, Mo.).
# Results. The present inventors have made the surprising discovery that ASA, SA and SU may shift the hemostatic balance toward a profibrinolytic state by inhibition of TAFIa, the major regulator of fibrinolysis. TAFIa was incubated with various concentrations of ASA, SA and SU for one hour, at room temperature. Residual TAFIa activity was measured using ActiFLUOR TAFIa. […] Catella-Lawson and coworkers recently reported that ibuprofen, taken prior to aspirin, blocks the irreversible inhibition of COX-1 by aspirin and abrogates the anti-platelet activity of aspirin. Catella-Lawson, F. et al., 2001, N. Engl. J. Med. 345(25):1809-17. Since ibuprofen has little effect on TAFI, it was reasonable to conclude that ibuprofen taken prior to aspirin would not block the profibrinolytic activity of aspirin caused by TAFI inhibition.
row,SMILES,concentration at which significant inhibition of TAFI activity occurs [µg/mL]
1,"O=C(O)c1ccccc1O [SA, salicylic acid]",100 to 200
2,"O=C(O)CNC(=O)c1ccccc1O [SU, salicyluric acid (2-hydroxyhippuric acid)]",100 to 200
